± gives the standard deviation of the averaged measurements. The list shows a part of the results, in another mix than the full data.
compound: Nc1ncnc2c1ncn2[C@@H]1O[C@H](COP(=O)(O)OP(=O)(O)NP(=O)(O)O)[C@@H](O)[C@H]1O [adenylyl imidodiphosphate]; assay: NP40-soluble protein abundance relative to vehicle (solubility fold change) (ratio); higher = more soluble protein in presence of AMP-PNP; conditions: concentration: 1mM
Method in brief: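 Values are fold changes against the detergent-processed vehicle, based on vsn-normalised intensities. Jurkat crude lysate was treated at eight concentrations from 0.1 to 10 mM (10 min at room temperature, then 3 min at 37 °C), solubilised with 0.8% NP40 and benzonase, ultracentrifuged and analysed by TMT-labelled LC-MS/MS over three independent experiments.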

Amino acid sequences for entries named in this document (tags omitted). A change or cut given only in a name is not applied to a line headed by its entry.
UniProt Q9BTY7: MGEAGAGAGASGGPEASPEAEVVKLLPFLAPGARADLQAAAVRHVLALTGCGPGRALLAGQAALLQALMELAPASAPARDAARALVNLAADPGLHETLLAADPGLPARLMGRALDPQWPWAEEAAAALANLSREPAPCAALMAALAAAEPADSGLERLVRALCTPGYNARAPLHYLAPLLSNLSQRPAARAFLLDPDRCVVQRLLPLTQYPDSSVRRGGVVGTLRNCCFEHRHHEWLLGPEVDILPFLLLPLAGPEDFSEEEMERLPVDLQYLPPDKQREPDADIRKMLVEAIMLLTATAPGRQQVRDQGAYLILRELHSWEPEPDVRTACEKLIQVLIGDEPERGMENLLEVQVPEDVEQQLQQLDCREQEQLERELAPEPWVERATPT
UniProt Q9BUB5: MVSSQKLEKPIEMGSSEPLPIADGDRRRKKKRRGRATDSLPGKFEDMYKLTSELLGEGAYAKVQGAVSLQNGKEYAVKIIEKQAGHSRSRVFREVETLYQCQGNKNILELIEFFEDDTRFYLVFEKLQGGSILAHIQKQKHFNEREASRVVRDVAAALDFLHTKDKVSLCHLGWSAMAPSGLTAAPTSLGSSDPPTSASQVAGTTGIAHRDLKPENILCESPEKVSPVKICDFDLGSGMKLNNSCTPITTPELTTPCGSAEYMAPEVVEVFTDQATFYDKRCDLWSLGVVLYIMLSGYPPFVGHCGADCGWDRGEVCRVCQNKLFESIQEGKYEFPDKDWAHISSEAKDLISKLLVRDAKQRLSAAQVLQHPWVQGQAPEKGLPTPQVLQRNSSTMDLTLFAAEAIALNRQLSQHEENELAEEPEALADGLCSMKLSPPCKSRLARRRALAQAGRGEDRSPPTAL
UniProt Q96SB8: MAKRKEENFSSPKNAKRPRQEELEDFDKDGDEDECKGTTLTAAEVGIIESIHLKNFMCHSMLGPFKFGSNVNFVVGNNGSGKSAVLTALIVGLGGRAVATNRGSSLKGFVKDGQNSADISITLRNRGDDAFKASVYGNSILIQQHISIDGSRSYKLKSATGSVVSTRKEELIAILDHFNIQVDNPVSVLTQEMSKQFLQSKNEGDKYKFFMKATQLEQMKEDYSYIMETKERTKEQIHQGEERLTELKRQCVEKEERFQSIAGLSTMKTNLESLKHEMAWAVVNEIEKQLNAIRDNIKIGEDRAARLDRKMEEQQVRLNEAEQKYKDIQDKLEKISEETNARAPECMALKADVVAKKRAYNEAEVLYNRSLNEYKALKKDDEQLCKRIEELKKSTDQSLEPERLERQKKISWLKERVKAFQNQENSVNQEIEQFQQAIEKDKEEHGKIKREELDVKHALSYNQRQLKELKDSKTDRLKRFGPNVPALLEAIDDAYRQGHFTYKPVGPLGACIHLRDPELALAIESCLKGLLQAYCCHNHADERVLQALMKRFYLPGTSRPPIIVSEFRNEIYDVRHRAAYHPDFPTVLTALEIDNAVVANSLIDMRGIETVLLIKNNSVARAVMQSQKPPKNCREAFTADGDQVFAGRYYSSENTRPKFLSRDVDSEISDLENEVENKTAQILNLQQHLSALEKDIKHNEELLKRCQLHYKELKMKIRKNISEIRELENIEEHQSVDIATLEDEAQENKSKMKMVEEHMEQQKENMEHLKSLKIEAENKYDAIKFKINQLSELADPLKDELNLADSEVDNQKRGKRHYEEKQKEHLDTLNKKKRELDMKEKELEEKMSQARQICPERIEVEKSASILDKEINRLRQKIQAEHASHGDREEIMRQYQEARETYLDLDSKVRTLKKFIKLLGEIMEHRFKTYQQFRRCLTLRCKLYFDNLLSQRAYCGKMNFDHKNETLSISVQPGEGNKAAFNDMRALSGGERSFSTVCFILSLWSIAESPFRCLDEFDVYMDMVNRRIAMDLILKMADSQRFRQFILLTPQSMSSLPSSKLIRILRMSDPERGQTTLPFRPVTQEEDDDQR
UniProt Q9BRR8: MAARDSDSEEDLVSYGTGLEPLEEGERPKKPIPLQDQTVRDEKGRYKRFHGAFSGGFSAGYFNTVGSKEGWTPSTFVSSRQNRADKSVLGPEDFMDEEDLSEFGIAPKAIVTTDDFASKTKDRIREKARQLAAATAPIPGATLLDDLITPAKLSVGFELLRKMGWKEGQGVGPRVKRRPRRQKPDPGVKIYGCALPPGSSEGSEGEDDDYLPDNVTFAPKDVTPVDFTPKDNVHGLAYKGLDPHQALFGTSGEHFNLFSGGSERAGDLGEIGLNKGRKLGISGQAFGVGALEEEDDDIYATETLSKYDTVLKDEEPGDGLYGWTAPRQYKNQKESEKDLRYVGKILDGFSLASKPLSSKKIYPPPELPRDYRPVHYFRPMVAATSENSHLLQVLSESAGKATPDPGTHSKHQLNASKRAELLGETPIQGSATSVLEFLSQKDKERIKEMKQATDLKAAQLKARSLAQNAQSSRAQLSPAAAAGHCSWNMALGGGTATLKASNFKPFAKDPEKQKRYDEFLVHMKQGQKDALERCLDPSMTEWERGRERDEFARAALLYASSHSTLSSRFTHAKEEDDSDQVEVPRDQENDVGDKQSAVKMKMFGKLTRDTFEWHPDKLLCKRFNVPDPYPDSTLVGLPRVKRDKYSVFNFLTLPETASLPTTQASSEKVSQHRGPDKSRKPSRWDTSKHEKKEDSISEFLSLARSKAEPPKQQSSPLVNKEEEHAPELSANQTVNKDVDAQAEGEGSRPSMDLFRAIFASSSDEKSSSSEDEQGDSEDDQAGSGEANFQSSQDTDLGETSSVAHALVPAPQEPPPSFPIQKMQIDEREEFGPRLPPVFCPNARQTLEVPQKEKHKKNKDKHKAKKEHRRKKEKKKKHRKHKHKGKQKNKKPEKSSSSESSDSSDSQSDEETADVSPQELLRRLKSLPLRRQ
UniProt Q96RS0: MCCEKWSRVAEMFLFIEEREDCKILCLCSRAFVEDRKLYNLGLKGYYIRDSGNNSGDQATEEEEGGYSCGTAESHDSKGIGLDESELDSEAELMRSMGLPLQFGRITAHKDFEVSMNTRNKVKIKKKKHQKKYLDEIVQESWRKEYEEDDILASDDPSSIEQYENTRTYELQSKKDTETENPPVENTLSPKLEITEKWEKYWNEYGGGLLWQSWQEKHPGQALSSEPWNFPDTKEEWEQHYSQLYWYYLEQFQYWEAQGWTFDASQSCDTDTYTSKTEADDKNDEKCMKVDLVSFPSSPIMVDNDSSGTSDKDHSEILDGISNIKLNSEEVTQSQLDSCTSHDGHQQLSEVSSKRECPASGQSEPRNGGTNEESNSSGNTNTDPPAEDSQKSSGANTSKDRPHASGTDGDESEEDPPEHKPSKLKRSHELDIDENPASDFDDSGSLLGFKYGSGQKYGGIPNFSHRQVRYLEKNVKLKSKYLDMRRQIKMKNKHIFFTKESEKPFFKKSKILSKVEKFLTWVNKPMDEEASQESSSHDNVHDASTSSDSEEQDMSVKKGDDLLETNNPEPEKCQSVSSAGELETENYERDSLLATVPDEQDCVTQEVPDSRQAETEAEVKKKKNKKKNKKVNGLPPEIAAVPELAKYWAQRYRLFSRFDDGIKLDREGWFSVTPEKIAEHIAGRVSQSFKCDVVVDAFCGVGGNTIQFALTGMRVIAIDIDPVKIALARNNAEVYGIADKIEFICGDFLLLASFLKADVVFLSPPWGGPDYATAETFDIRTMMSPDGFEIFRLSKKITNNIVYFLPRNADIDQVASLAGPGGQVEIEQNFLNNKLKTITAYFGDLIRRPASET
UniProt Q9BR61: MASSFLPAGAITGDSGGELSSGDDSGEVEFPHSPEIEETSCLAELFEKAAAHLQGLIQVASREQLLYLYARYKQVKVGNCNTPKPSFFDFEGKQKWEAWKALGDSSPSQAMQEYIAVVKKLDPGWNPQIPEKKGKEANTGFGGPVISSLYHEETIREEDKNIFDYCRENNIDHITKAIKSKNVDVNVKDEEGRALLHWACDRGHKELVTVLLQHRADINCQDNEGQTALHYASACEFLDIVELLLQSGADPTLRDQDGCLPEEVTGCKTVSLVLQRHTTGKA
UniProt Q99598: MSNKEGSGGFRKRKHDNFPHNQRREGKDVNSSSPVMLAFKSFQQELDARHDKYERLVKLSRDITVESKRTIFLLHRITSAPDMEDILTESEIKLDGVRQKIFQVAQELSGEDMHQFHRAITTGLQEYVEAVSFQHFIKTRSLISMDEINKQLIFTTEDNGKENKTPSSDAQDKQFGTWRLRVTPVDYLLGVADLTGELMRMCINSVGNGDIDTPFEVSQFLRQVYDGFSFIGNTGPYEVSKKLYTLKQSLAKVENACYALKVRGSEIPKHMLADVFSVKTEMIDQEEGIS
UniProt Q96SZ5, whole entry: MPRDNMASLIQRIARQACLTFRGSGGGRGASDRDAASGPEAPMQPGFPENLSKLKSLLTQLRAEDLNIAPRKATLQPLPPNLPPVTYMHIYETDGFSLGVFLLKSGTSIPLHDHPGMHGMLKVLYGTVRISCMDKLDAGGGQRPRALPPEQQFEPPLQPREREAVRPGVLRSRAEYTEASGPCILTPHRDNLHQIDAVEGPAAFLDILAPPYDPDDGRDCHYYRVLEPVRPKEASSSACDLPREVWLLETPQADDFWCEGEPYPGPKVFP
UniProt Q9BRX8: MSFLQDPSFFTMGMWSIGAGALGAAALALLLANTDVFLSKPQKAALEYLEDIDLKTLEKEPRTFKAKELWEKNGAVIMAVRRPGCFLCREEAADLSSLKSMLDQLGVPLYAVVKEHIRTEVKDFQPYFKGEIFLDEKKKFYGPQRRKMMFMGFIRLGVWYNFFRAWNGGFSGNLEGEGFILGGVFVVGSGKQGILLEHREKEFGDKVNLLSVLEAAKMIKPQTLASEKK
UniProt Q9BUK6: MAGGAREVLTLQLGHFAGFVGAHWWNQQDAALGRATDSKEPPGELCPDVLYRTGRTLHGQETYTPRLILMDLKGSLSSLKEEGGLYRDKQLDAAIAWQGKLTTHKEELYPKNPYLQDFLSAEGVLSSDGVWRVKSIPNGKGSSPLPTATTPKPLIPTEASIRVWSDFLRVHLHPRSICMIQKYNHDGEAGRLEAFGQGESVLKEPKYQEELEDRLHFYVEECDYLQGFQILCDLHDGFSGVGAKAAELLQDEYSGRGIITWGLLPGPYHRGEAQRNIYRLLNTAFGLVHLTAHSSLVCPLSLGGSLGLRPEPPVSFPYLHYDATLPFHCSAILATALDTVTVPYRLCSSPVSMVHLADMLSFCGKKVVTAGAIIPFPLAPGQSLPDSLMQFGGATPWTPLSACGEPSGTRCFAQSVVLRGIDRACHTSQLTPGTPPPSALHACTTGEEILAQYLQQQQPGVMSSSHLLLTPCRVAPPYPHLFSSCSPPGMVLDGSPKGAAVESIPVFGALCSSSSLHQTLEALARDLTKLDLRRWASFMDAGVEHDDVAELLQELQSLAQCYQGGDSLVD
UniProt Q9BVS4: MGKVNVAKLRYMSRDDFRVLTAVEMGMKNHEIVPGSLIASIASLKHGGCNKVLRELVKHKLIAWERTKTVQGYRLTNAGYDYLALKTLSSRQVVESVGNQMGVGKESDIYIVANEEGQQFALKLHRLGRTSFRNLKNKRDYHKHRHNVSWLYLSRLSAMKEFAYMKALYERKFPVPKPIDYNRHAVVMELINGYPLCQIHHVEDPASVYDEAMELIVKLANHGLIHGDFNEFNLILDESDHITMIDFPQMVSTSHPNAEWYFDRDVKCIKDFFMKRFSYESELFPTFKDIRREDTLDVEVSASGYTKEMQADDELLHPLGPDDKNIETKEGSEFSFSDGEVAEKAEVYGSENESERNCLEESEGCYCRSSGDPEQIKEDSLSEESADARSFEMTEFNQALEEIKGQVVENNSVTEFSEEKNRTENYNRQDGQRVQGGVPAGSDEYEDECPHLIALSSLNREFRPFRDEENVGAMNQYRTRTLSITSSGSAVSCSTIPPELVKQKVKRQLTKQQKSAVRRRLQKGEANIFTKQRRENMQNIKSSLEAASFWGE
UniProt Q99766: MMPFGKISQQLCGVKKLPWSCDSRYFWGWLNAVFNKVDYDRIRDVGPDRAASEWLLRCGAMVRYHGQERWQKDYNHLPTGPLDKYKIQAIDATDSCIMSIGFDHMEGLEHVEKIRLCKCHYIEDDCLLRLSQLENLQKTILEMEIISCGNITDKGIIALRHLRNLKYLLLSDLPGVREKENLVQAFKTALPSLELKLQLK
UniProt Q99633: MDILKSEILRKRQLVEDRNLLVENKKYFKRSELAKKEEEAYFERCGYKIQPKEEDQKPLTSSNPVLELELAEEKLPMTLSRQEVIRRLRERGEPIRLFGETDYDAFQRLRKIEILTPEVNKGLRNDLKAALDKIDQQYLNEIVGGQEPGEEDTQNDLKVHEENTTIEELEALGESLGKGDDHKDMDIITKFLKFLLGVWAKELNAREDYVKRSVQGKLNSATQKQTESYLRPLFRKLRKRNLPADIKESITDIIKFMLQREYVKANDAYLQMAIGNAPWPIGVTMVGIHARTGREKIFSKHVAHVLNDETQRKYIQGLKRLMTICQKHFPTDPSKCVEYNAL

Target | NP40-soluble protein abundance
UniProt Q9BSH4 | 0.994 ± 0.046
UniProt Q9BPY3 and related entries | 1.03 ± 0.019
UniProt Q9BTY7 | 0.954 ± 0.04
NUP85 (UniProt Q9BW27) | 0.992 ± 0.047
UniProt Q96RU2-2 | 0.972 ± 0.028
UniProt Q9BUB5 and related entries | 1.06 ± 0.031
SMC6 (UniProt Q96SB8) | 1.04 ± 0.019
SDF2 (UniProt Q99470) | 0.975 ± 0.024
CDC5L (UniProt Q99459) | 1.04 ± 0.036
GPATCH1 (UniProt Q9BRR8) | 1.03 ± 0.039
UniProt Q96RS0 and related entries | 0.9804 ± 0.0096
ACBD6 (UniProt Q9BR61) | 1.02 ± 0.029
UniProt Q9BTT0 and related entries | 1.01 ± 0.03
UniProt Q9BTD8 and related entries | 1.03 ± 0.026
UniProt Q9BXS6 and related entries | 0.955 ± 0.028
TSNAX (UniProt Q99598) | 0.973 ± 0.024
ADO (UniProt Q96SZ5) | 1.01 ± 0.036
UniProt Q9BRX8 and related entries | 0.995 ± 0.032
UniProt Q9BUK6 and related entries | 0.995 ± 0.046
UniProt Q9BSD7 | 1.15 ± 0.067
UniProt Q96TA2 and related entries | 0.999 ± 0.037
UniProt Q9BVS4 and related entries | 0.966 ± 0.037
KLF16 (UniProt Q9BXK1) | 1.01 ± 0.047
UniProt Q99766 | 0.999 ± 0.019
PRPF18 (UniProt Q99633) | 1.02 ± 0.045
UniProt Q96ST2 and related entries | 0.99 ± 0.041
TBCB (UniProt Q99426) | 1 ± 0.022

An excerpt of these results, with each value named.
UniProt Q9BTY7
  NP40-soluble protein abundance: 0.954 ± 0.04
NUP85 (UniProt Q9BW27)
  NP40-soluble protein abundance: 0.992 ± 0.047
